Experimental data as given in the supplement of paper PMC12819154, “High-throughput peptide-centric local stability assay extends protein–ligand identification to membrane proteins, tissues and bacteria” (Nature Structural & Molecular Biology, 2025).
The other results are listed elsewhere or left out. Most entries show no effect beyond the scatter of the controls.

Sequences of proteins named here, by UniProt entry; tags and fusion partners are left off. A change or cut given only in a name is not applied to a line headed by its entry.
UniProt Q8R2R6: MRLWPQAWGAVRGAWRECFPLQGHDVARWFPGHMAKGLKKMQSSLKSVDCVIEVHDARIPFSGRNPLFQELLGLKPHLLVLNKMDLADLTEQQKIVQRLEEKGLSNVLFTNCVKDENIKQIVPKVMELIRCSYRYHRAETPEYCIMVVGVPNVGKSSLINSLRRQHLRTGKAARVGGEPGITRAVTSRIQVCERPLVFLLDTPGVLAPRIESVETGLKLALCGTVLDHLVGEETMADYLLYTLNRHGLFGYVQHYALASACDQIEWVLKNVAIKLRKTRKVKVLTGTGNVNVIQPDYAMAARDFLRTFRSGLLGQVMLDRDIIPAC
UniProt Q8K1R3: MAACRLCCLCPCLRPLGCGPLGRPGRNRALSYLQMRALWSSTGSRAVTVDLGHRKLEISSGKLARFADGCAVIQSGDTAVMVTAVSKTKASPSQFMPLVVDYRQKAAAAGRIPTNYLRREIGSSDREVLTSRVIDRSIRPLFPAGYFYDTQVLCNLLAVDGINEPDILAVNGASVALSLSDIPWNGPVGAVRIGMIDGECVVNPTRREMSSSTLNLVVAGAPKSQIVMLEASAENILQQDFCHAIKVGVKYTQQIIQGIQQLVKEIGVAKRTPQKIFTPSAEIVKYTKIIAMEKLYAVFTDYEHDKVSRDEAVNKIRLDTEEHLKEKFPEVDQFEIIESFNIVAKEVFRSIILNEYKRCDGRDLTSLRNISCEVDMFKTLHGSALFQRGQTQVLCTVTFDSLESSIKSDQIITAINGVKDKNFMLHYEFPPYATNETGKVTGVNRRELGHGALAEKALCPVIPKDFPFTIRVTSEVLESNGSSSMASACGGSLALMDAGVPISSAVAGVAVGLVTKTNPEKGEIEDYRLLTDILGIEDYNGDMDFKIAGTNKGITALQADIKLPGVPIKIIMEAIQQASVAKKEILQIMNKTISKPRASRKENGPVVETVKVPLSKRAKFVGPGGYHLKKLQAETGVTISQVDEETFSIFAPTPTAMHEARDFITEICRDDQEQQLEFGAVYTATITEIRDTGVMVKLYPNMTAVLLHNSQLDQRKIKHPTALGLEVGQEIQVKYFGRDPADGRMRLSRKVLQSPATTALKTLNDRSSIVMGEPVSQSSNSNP
UniProt Q8K363: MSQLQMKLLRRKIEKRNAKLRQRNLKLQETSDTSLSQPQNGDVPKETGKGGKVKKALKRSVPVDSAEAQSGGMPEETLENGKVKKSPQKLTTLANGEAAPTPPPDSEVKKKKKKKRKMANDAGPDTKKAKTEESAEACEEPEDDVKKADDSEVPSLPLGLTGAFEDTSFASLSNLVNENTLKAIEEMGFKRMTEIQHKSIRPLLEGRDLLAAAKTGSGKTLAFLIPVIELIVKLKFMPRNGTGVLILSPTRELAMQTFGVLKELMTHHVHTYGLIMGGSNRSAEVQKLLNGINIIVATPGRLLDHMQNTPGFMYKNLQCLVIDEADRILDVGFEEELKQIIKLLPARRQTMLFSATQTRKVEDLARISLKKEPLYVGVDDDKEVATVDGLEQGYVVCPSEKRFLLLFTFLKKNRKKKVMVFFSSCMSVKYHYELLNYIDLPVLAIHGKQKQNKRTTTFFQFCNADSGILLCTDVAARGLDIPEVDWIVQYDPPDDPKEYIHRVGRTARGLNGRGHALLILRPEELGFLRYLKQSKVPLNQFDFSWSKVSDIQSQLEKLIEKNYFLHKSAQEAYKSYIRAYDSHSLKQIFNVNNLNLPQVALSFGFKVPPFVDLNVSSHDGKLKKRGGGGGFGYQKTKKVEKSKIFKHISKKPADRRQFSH
UniProt Q8K3H0: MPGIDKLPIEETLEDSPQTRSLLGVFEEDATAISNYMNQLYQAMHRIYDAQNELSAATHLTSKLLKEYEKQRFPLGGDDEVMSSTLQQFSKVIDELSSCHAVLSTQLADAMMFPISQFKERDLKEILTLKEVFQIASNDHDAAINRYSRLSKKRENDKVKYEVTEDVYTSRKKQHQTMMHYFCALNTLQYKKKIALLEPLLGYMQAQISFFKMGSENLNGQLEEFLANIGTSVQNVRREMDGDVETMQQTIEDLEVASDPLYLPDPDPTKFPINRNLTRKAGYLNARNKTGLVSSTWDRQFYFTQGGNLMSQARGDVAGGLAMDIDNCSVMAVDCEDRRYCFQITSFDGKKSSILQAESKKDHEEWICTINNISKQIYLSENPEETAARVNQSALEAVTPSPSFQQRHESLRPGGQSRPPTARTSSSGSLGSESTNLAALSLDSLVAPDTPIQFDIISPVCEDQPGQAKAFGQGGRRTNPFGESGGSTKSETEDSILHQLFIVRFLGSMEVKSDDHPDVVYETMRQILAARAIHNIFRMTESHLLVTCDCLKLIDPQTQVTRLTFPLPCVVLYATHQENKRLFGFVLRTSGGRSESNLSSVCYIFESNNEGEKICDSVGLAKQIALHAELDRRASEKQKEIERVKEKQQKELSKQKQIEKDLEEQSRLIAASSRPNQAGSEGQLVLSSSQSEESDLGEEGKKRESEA
UniProt Q8K157: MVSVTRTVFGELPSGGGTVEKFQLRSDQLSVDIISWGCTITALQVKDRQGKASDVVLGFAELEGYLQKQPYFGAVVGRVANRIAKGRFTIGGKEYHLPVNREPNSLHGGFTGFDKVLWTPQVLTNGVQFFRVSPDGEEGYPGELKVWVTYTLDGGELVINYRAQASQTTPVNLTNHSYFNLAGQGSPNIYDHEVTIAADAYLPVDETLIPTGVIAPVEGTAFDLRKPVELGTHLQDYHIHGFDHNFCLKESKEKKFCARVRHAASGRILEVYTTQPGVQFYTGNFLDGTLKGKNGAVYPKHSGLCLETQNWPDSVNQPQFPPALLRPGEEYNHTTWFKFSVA
UniProt Q8K190: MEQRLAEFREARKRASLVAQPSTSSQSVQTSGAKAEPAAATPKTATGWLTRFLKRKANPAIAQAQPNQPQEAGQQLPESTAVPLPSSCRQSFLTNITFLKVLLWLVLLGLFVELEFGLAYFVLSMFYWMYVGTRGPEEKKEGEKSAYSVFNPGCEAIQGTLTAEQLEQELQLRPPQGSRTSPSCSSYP
UniProt Q8K2Q7: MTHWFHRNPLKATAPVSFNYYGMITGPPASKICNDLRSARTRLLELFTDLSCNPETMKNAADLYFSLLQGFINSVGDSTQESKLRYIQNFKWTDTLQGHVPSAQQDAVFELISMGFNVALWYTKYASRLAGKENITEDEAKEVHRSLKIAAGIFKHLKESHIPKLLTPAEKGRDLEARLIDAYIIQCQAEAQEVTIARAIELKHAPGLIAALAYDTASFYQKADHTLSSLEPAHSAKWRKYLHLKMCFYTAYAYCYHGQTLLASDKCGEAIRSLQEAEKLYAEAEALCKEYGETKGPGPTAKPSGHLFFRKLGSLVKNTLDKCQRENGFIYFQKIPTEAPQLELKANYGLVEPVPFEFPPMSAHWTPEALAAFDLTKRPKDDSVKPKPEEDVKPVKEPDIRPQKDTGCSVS
UniProt Q8R043: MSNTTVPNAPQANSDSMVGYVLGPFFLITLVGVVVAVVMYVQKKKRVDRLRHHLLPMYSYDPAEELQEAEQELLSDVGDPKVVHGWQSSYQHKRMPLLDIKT
UniProt Q8K1T1: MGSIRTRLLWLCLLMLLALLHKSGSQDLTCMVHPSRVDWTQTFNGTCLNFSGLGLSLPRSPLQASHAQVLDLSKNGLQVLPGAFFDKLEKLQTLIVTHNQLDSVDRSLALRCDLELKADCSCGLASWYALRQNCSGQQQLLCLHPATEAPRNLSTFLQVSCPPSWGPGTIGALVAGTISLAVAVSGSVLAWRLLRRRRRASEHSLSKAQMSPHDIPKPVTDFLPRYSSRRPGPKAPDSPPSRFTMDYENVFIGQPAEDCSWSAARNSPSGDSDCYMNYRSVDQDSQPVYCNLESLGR
UniProt Q8R0K4: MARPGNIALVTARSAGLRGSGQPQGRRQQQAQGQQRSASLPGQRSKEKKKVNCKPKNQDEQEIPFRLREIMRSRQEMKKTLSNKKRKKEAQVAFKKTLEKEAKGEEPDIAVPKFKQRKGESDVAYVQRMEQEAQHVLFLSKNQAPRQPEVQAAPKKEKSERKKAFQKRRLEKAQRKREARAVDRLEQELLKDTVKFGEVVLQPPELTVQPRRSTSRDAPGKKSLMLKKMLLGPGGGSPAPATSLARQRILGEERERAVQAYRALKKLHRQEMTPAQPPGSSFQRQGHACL
UniProt Q8R1X6: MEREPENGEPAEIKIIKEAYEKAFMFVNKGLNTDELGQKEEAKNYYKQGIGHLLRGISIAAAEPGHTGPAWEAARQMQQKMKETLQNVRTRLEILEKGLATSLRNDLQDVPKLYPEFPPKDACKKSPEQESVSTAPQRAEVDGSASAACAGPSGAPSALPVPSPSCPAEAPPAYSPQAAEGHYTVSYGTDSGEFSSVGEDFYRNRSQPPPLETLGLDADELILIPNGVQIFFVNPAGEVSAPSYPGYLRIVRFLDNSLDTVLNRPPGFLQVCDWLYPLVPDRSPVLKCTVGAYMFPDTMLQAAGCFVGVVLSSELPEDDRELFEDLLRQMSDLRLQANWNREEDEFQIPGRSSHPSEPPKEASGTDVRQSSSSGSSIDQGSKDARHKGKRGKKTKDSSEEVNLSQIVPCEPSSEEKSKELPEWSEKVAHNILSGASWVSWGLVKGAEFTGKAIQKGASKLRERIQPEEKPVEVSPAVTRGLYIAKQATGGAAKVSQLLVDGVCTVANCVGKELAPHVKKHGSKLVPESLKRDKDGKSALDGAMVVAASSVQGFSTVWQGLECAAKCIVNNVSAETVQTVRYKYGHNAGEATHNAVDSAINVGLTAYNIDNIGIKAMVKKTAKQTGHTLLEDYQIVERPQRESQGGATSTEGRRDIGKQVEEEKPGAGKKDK
UniProt Q8K3K8, whole entry: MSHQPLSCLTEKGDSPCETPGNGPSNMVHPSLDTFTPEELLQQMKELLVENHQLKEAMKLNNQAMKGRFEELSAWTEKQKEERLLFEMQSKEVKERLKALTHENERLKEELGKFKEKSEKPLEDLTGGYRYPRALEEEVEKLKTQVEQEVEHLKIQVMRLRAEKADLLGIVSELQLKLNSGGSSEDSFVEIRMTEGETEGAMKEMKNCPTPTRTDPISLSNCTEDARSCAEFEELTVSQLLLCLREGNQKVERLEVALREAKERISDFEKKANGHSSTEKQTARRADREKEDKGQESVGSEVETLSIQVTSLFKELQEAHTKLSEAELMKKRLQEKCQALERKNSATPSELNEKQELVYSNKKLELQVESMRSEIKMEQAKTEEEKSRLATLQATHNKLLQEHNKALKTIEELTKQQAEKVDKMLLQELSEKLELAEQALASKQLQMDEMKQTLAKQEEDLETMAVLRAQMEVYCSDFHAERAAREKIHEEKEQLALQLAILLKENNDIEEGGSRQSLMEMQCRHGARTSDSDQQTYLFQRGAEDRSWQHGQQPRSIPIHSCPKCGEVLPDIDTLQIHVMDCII
UniProt Q8R1H0: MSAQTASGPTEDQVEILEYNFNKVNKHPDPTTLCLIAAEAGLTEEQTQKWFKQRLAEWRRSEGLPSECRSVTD
UniProt Q8K1J6: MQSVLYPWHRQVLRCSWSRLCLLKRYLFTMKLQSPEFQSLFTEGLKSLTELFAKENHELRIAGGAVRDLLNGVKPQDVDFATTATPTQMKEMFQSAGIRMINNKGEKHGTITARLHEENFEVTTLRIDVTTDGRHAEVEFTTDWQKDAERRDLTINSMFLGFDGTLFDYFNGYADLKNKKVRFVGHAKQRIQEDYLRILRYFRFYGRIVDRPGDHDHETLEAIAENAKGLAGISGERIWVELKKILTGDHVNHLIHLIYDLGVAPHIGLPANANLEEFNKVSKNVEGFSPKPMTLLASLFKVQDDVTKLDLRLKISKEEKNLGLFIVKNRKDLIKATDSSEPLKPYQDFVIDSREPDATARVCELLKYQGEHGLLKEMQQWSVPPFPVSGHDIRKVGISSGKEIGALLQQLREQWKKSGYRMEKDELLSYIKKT
UniProt Q8K3G9: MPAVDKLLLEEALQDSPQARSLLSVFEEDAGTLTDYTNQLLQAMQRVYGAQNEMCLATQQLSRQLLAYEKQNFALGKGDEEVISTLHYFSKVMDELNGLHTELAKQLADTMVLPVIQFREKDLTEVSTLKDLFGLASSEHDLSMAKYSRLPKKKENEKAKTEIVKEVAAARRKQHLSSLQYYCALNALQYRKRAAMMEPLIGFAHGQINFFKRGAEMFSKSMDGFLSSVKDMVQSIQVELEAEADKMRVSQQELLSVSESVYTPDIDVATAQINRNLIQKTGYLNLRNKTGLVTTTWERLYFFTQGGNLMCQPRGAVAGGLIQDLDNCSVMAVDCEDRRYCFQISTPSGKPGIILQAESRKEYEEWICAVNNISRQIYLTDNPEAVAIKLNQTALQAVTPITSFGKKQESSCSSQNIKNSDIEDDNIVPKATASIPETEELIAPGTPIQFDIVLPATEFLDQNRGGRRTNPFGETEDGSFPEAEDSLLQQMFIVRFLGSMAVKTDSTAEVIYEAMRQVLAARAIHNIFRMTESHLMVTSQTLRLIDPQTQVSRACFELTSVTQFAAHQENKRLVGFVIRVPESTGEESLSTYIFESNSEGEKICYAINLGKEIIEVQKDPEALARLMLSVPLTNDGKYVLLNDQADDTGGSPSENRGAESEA

compound: CN[C@@H]1C[C@H]2O[C@@](C)([C@@H]1OC)n1c3ccccc3c3c4c(c5c6ccccc6n2c5c31)C(=O)NC4 [staurosporine]; assay: log2 fold change of tryptic peptide abundance, ligand vs vehicle (limited proteolysis) (log2 ratio); higher = more trypsin-susceptible (destabilized); settings: ligand concentration: 20 uM; sample: mouse liver crude lysate; replicate design: treated separately

Target	log2 fold change
UniProt Q8R2K4 (peptide sequence: QQGPGAGTR, peptide start residue: 530)	0.191
UniProt Q8K183 (peptide sequence: SQELHELYEGLK, peptide start residue: 59)	-0.342
UniProt Q8R2R6 (peptide sequence: GLSNVLFTNCVKDENIK, peptide start residue: 103)	0.204
UniProt Q8K124 (peptide sequence: ELVTLYR, peptide start residue: 485)	0.12
UniProt Q8K2T8 (peptide sequence: TEYISTEFNR, peptide start residue: 134)	0.118
UniProt Q8K1R3 (peptide sequence: AVTVDLGHR, peptide start residue: 46)	0.25
UniProt Q8K363 (peptide sequence: GHALLILRPEELGFLR, peptide start residue: 514)	0.211
UniProt Q8K3H0 (peptide sequence: TGLVSSTWDR, peptide start residue: 290)	-0.191
UniProt Q8K157 (peptide sequence: EYHLPVNR, peptide start residue: 94)	0.19
UniProt Q8K190 (peptide sequence: TATGWLTR, peptide start residue: 44)	-0.0181
UniProt Q8K2Q7 (peptide sequence: GPGPTAKPSGHLFFR, peptide start residue: 296)	-0.777
UniProt Q8K3C3 (peptide sequence: VLALAGFDVEK, peptide start residue: 177)	0.0661
UniProt Q8R043 (peptide sequence: VVHGWQSSYQHK, peptide start residue: 82)	-0.0476
UniProt Q8K1A0 (peptide sequence: YDLPALYNFHK, peptide start residue: 184)	-0.399
UniProt Q8K3X6 (peptide sequence: TYSKEDSGTISSSHSTLSR, peptide start residue: 164)	-0.0895
UniProt Q8K1T1 (peptide sequence: AQMSPHDIPKPVTDFLPR, peptide start residue: 208)	-0.277
UniProt Q8QZY2 (peptide sequence: TLSLDPSGR, peptide start residue: 58)	-0.101
UniProt Q8R0F5 (peptide sequence: VKLINELNER, peptide start residue: 7)	-0.871
UniProt Q8R033 (peptide sequence: QQVLLLYR, peptide start residue: 20)	-0.321

Random excerpt: 3 entries already listed, in no set order.
Target	log2 fold change
UniProt Q8QZY2 (peptide sequence: TLSLDPSGR, peptide start residue: 58)	-0.101
UniProt Q8K157 (peptide sequence: EYHLPVNR, peptide start residue: 94)	0.19
UniProt Q8K124 (peptide sequence: ELVTLYR, peptide start residue: 485)	0.12

The list goes on:

Target	log2 fold change
UniProt Q8R2P1 (peptide sequence: QSEDFNSLSR, peptide start residue: 181)	0.258
UniProt Q8R0K4 (peptide sequence: AVDRLEQELLKDTVK, peptide start residue: 181)	-0.297
UniProt Q8R1X6 (peptide sequence: GLNTDELGQKEEAK, peptide start residue: 30)	-0.79
UniProt Q8K2U2 (peptide sequence: GMVPERLPPWLQR, peptide start residue: 69)	0.515
UniProt Q8K3K8 (peptide sequence: ENNDIEEGGSR, peptide start residue: 505)	0.464
UniProt Q8QZR5 (peptide sequence: ECIEAVIR, peptide start residue: 253)	-0.483
UniProt Q8K1Z0 (peptide sequence: LVQLGQAEKR, peptide start residue: 162)	-0.705
UniProt Q8R1F6 (peptide sequence: TSLVATPGIDKLTEK, peptide start residue: 615)	0.164
UniProt Q8QZR3 (peptide sequence: ETLPAVLK, peptide start residue: 365)	-0.302
UniProt Q8K2P6 (peptide sequence: EVVIFYHK, peptide start residue: 40)	0.127
UniProt Q8K1M6 (peptide sequence: LLMHHIR, peptide start residue: 298)	0.153
UniProt Q8R1H0 (peptide sequence: RSEGLPSECR, peptide start residue: 60)	0.0825
UniProt Q8K2T4 (peptide sequence: DAAATKENVAWR, peptide start residue: 66)	-0.322
UniProt Q8QZS3 (peptide sequence: FWMTGLSK, peptide start residue: 552)	-0.112
UniProt Q8R146 (peptide sequence: ALDVSASDEEMARPK, peptide start residue: 181)	-0.0999
UniProt Q8K1X1 (peptide sequence: YLQTYGEWNR, peptide start residue: 1081)	0.306
UniProt Q8K1J6 (peptide sequence: MEKDELLSYIK, peptide start residue: 422)	-0.111
UniProt Q8K3G9 (peptide sequence: RKQHLSSLQYYCALNALQYR, peptide start residue: 172)	-0.499
